Data on 42 sequences can be found in PMC7819943, “Rice protein-binding microarrays: a tool to detect cis-acting elements near promoter regions in rice”.

Chains of the proteins cited; added tags and fusions are not shown.
UniProt Q0JBA9, entry or part of it: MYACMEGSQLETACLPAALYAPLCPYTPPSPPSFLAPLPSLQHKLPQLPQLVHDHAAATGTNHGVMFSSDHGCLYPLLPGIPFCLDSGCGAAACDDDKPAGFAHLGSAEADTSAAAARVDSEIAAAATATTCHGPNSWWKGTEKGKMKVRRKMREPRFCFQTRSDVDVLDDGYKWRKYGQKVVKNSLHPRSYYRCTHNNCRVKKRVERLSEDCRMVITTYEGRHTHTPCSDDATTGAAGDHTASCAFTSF

The other results are listed elsewhere or left out.

In this assay the target is OsWRKY34 (Oryza sativa, UniProt Q0JBA9 1-250). Description: protein-binding microarray (RPBM); PBS, 2% BSA, 51.3 ng/ul salmon testes DNA, 50 uM zinc acetate, 200 nM TF, 25 C, 1 h; high values mean tight binding. The settings on record: protein: recombinant; tags: N-terminal polyhistidine and DsRed monomer fusion (pET32a); label: CyDye5-dUTP incorporated in the synthesized complementary strand; 3' TTTTT single-stranded linker to array surface; dsDNA, one strand shown. In a few lines: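 Ni–NTA purification followed expression in E. coli BL21-CodonPlus of transcription factors fused N-terminally to a polyhistidine tag and DsRed. At 200 nM in PBS with 2% BSA, salmon testes DNA and 50 µM zinc acetate, the protein was incubated for 1 h at 25 °C with a custom Agilent array that had been primer-extended with Cy5-dUTP and blocked with 2% BSA. After washing, the array was read on an Axon 4000B scanner. The binding signal is per-feature fluorescence intensity in arbitrary units.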
For “CTGCCCTACGCCTAAACGATCCTCTTTCTGGGACAAACTCCGGAGTCACCTAGTGCAG”, the binding signal was 8950 fluorescence intensity (a.u.).

Take “GATTTATATATAATCAGGACACCTTCTCTTCTCTTCTCTCCGGAGTCACCTAGTGCAG”: the binding signal was 8230 fluorescence intensity (a.u.).

Regarding “GGGAGAGAGAGTACGGGACGGGAGGGGAGAGGGGAAAACGCGGAGTCACCTAGTGCAG”, the binding signal is 8920 fluorescence intensity (a.u.).

As for “CCAGTGAGACAAGTACCTGCATTCCTCTGCGCTTTTCTTTCGGAGTCACCTAGTGCAG”, the binding signal was 11700 fluorescence intensity (a.u.).

“GGAGGGGTATTTTGGTCATTAGTCTAGAAACTTCCTTTTCCGGAGTCACCTAGTGCAG”: the binding signal is 11700 fluorescence intensity (a.u.).

As to “ACAACCATCGTTGATTTTATTTCTTTGTCATTTTCTCATTCGGAGTCACCTAGTGCAG”, the binding signal is 9840 fluorescence intensity (a.u.).

As for “ATCGCCTTGGGTTGGGTTGTGTCTCTCTCTCTGTCTCCAGCGGAGTCACCTAGTGCAG”, the binding signal was 11200 fluorescence intensity (a.u.).

In the case of “GGTCGTGCGGCGGGAGGAGGGCGGCGGCGGCTTGGAACTCCGGAGTCACCTAGTGCAG”, the binding signal was 10100 fluorescence intensity (a.u.).

Regarding “CACCTCACCTCACTCATCCCTGCCAATCCACGCGCTTAATCGGAGTCACCTAGTGCAG”, the binding signal is 8210 fluorescence intensity (a.u.).

With “TAGGAATATATTTTTTGGGTTTTTTTTGTAACATACACATCGGAGTCACCTAGTGCAG”, the binding signal was 8380 fluorescence intensity (a.u.).

Consider “AGACCTATTTTTGGGTACTGTAACTTCCTCGAGATTAGATCGGAGTCACCTAGTGCAG”, for which the binding signal was 9040 fluorescence intensity (a.u.).

Consider “TGGATTGATTTCTTCTTTTGTTGGTAAGGAACCCTGTTTTCGGAGTCACCTAGTGCAG”, for which the binding signal was 9390 fluorescence intensity (a.u.).

“ACACACCCACACTCCTCCATTCACAAAGACCAATATAAATCGGAGTCACCTAGTGCAG”: the binding signal was 8210 fluorescence intensity (a.u.).

Turning to “GCTTGACCGCTTCTTCAATCTTGATCCGTCCCTCTCACTACGGAGTCACCTAGTGCAG”, the binding signal is 8680 fluorescence intensity (a.u.).

In the case of “CGCCTCAACACCTGCCAATCAAGCCGGTACCTTTCTCTCTCGGAGTCACCTAGTGCAG”, the binding signal is 8810 fluorescence intensity (a.u.).

Regarding “AAAATGCCACATCGGTATGCCGCATCTTCGTTGCAATCTTCGGAGTCACCTAGTGCAG”, the binding signal is 8350 fluorescence intensity (a.u.).

For the sequence “CTTGCTTTCATTTTTTTCCTTCCTTTCTTTCTTTCTTTCTCGGAGTCACCTAGTGCAG”, the binding signal was 8070 fluorescence intensity (a.u.).

Turning to “ACCGGCAGACGGCAGTCCAGCACTCCCGCAATCCCGCTGCCGGAGTCACCTAGTGCAG”, the binding signal is 9000 fluorescence intensity (a.u.).

For the sequence “TTTGATCTAACTCTTGTTGTGCACTCGGTTCAGACATATCCGGAGTCACCTAGTGCAG”, the binding signal was 9240 fluorescence intensity (a.u.).

As for “CTTGTTGACATTCTTTGGTGAGTTTGTCATGGTCTAAAATCGGAGTCACCTAGTGCAG”, the binding signal is 8380 fluorescence intensity (a.u.).

As to “GCCTGATTATCCATTGTTCATCCTGCCATATTGATTTCAGCGGAGTCACCTAGTGCAG”, the binding signal is 9780 fluorescence intensity (a.u.).

With “TACTACTACTTTCATTGGCCCTGCAATTATTCGTTCAGAACGGAGTCACCTAGTGCAG”, the binding signal was 9750 fluorescence intensity (a.u.).

As for “GTTCTTTGTTGGTTTTGACCCTGATTTTATTCGATGTGACCGGAGTCACCTAGTGCAG”, the binding signal was 8540 fluorescence intensity (a.u.).

In the case of “TGGATCGGAGCTCTGCTCACGGTGTTTAGCTACCGTTTCTCGGAGTCACCTAGTGCAG”, the binding signal is 8470 fluorescence intensity (a.u.).

As for “CTTCTCGTTCACACTTTTCCAAACGATCGACTGCATAAAACGGAGTCACCTAGTGCAG”, the binding signal is 12700 fluorescence intensity (a.u.).

On to “CTTTTTGCAACAGTCTCATTTCTACCCTCATTGTTAACTTCGGAGTCACCTAGTGCAG”, for which the binding signal is 8700 fluorescence intensity (a.u.).

With “TGCAGTTTGAACGCGTTGCTATACTCACAGCCCCTATATCCGGAGTCACCTAGTGCAG”, the binding signal is 8220 fluorescence intensity (a.u.).

Turning to “TTCGTTGACCAGAATTGAGGGGCTAGCTTAATATTAAATTCGGAGTCACCTAGTGCAG”, the binding signal is 8890 fluorescence intensity (a.u.).

As to “GTCTCGCCGCTCGCCGCCCGCGCGCGCTCGCGTCTCTCGCCGGAGTCACCTAGTGCAG”, the binding signal is 8500 fluorescence intensity (a.u.).

On to “GTTTCCAAGGCTGACCTCCACCATTTCTGGGATCTCTCCACGGAGTCACCTAGTGCAG”, for which the binding signal was 8270 fluorescence intensity (a.u.).

As to “GAACCCGATCAGCAGCCGTGCACGTGTCCCATACGCCGTTCGGAGTCACCTAGTGCAG”, the binding signal was 9570 fluorescence intensity (a.u.).

With “GTTTATTTTAAGACAGAGGGACTAACCTACCACTCTCTCCCGGAGTCACCTAGTGCAG”, the binding signal was 9560 fluorescence intensity (a.u.).

As to “GTATCTTCATATTCCAAAATAGTTGTGGTGGGGTAGTGAGCGGAGTCACCTAGTGCAG”, the binding signal is 9700 fluorescence intensity (a.u.).

For “GATCTCACGATTCGCCTCCGCCGCCCCGTCCTGTTCCCCACGGAGTCACCTAGTGCAG”, the binding signal is 8560 fluorescence intensity (a.u.).

As to “AACACAACACTTGCAAAATTCTGATGAGTACTTCAAAACTCGGAGTCACCTAGTGCAG”, the binding signal is 8560 fluorescence intensity (a.u.).

For “CTCACATATCTCTTTATCCACACGCATATTTTTCAGACGGCGGAGTCACCTAGTGCAG”, the binding signal is 9500 fluorescence intensity (a.u.).

With “CGTCCTCGCCGATTCCCACGCCGCCGCCCATCAACTCCGACGGAGTCACCTAGTGCAG”, the binding signal is 13200 fluorescence intensity (a.u.).

Regarding “CATCTCTCTCTCTCTCTCTCTCTCTCTCTCTCCCACCCCACGGAGTCACCTAGTGCAG”, the binding signal is 8230 fluorescence intensity (a.u.).

Take “ACTTAAATTTTTACCCAATTTTTGAGGCTTTTCATTCAAACGGAGTCACCTAGTGCAG”: the binding signal is 8090 fluorescence intensity (a.u.).

With “GATCTCGCAATGTGGATTTGTGGTGGCTGTGGGTGGATAACGGAGTCACCTAGTGCAG”, the binding signal is 9150 fluorescence intensity (a.u.).

“GATTAAAGAACCGCTTTTCTAAGTACTTTTGACTTGATTACGGAGTCACCTAGTGCAG”: the binding signal is 8310 fluorescence intensity (a.u.).

Turning to “AACCTGTACCAATTTTAGGTGAATTTCGTTCTGTTTCACCCGGAGTCACCTAGTGCAG”, the binding signal is 9090 fluorescence intensity (a.u.).
